{
  "source": "patent US6011019A",
  "about": "“Vasoactive effects and free radical generation by β-amyloid peptides” (University of South Florida, priority 1996, dated 2000)",
  "test_system": "blood vessel (rat aorta)",
  "assay": "Vascular response of blood vessel rings in tissue bath (basal tension, β-amyloid induced vasoactivity)",
  "settings": "with or without endothelium",
  "experimental": "Freshly excised rat and porcine blood vessels were placed in Kreb's bicarbonate buffer equilibrated with 5% CO2 in O2. The buffer composition consisted of 118.2 mM NaCl, 4.7 mM KCl, 1.2 mM MgSO4, 2.5 mM CaCl2, 1.2 mM NaH2 PO4, 23 mM NaHCO3 and 11.2 mM glucose. After cleaning the vessels free of fat and other adhering tissues, the vessels were cut into ring segments of approximately 3 mm in length. Care was taken not to damage the intimal surface.\nThe endothelium was removed from some preparations by rubbing the inside of the lumen with a metal spatula for six to ten seconds and subsequent rinsing with buffer. The removal of endothelium was confirmed by testing for relaxation to acetylcholine [Furchgott and Zawadzki, 1980].\nThe blood vessel preparations were mounted on stainless steel hooks attached to a force-displacement transducer and equilibrated under the optimum tension of 1.3 g for a period of sixty minutes in a tissue bath (10 ml) containing oxygenated (5% CO2 in O2) Kreb's buffer at 37° C. The buffer was changed every fifteen minutes. After equilibration for sixty minutes the viability of the blood vessel with intact endothelium was established by constricting the blood vessel using phenylephrine ([…]). This dose of phenylephrine elicited 80% of the maximum response. […] The vessel preparations were washed for fifteen minutes before various manipulations as described below. […]",
  "note": "At least one structure is not confirmed: it was looked up by name or label, or the drawing left a doubt.",
  "data": [
    {"smiles": "CC(=O)OCC[N+](C)(C)C", "note": "[Acetylcholine, acetylcholine]", "values": [
      {"measurement": "relaxation of preconstricted vessels", "result": "relaxed preconstricted vessels only when endothelium was present"}
    ]}
  ]
}
